Laboratory results as given in publication PMC9851726.
Results are given in words; binding and its absence hold for the method and conditions named. In cells and extracts the contact can be indirect. Some results given as binding are weak or reduced against the parent protein; the word gives no strength.

By UniProt entry, the sequences of proteins in these tests, tags left out. Where a name states a change or a piece, a line headed by the entry shows the natural chain unless it says otherwise. Residues count along the entry.
UniProt P0DTC8, residues 18-121: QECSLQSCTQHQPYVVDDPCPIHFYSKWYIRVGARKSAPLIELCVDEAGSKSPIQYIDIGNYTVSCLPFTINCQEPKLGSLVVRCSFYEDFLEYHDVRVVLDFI
UniProt P01024: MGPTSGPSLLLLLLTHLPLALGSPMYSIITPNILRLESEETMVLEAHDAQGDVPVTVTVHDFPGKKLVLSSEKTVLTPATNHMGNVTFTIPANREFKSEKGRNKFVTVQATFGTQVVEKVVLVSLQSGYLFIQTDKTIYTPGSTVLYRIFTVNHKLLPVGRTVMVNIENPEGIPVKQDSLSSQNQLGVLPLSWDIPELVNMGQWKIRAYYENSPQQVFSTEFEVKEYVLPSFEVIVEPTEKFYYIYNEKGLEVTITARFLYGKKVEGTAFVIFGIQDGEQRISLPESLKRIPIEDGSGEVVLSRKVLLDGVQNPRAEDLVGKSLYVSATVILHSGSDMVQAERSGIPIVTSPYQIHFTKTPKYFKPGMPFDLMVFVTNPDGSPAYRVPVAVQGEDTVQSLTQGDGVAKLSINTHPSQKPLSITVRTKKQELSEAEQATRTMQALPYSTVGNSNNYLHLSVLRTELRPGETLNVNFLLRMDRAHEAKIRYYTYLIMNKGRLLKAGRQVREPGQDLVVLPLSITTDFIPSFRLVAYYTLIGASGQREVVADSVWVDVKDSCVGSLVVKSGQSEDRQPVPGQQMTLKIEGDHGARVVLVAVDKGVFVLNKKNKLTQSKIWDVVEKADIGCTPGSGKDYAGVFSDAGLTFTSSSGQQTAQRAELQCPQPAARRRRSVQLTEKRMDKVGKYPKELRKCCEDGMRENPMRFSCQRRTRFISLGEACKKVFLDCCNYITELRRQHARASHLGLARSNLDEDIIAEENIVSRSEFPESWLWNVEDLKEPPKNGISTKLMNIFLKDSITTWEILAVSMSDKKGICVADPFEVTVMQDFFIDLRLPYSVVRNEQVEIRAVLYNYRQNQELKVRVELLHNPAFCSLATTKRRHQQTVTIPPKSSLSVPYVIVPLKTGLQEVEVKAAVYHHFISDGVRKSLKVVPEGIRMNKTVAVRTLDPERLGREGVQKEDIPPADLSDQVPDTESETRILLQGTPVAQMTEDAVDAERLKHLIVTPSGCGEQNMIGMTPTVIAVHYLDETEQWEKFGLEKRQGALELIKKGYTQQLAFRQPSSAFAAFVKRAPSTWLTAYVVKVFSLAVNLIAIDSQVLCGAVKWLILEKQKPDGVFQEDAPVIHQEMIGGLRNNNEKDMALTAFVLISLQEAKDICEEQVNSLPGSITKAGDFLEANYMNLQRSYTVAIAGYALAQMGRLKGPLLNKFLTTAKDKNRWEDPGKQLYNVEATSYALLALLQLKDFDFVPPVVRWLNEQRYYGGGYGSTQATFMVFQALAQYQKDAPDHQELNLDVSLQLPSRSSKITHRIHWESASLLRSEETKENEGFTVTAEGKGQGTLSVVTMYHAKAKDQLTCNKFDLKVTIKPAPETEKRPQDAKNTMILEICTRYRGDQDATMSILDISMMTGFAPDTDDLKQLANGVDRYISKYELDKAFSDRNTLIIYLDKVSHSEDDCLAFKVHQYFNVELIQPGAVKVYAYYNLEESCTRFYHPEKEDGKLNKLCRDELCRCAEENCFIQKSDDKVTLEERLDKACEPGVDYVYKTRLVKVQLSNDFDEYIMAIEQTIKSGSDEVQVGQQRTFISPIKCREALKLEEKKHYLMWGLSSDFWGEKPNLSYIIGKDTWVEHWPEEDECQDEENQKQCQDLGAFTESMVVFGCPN

Legend:
[1] = target: SARS-CoV-2 ORF8 protein, flag-tagged codon-optimized construct (SARS-CoV-2) (UniProt P0DTC8); experiment: co-IP
[2] = target: human complement component C3 (native) (human) (UniProt P01024); experiment: co-IP

Row | Substance | binding [1] | binding [2]
1 | human complement C3b (from UniProt P01024 23-667; P01024 749-1663) | binds | 
2 | human complement C3c (from UniProt P01024 23-667; P01024 749-954; P01024 1321-1663) (domain or fragment) | binds | 
3 | human complement component C3 (native) (from UniProt P01024 23-667; P01024 672-1663) | binds | 
4 | SARS-CoV-2 ORF8 protein, flag-tagged codon-optimized construct (from UniProt P0DTC8 18-121) |  | binds
